{"source": "paper PMC5267519", "about": "“Evaluation of a Novel Renewable Hepatic Cell Model for Prediction of Clinical CYP3A4 Induction Using a Correlation-Based Relative Induction Score Approach” (Drug Metabolism and Disposition, 2017)", "key": {"CYP3A4 mRNA [1]": {"test_system": "CYP3A4 mRNA", "assay": "in vitro", "details": "human"}, "CYP3A4 mRNA [2]": {"test_system": "CYP3A4 mRNA"}, "CYP3A4 [3]": {"test_system": "CYP3A4"}, "CYP3A4 [4]": {"test_system": "CYP3A4", "from_the_text": "The resulting fitting equation was used to calculate predicted in vivo AUC change for each compound. […] Prediction accuracy using HepatoCells was also compared with prediction accuracy using primary human hepatocytes.", "remark": "listed apart in the source"}}, "note": "Values joined by “and” are separate entries in the source; they are usually repeats but may differ in a detail not shown here. Equal values may be shown once.", "data": [{"smiles": "COC(=O)C1=C(C)NC(C)=C(C(=O)OC)C1c1ccccc1[N+](=O)[O-]", "note": "[Nifedipine]", "values": [{"measurement": "EC50", "setting": "CYP3A4 mRNA [1]", "value": 3.5, "unit": "µM"}, {"measurement": "CYP3A4 mRNA expression induction response (in words)", "setting": "CYP3A4 mRNA [2]", "value": "positive induction response"}, {"measurement": "CYP3A4 mRNA induction over solvent vehicle control", "setting": "CYP3A4 mRNA [2]; human", "value": "greater than 1.4 fold"}, {"measurement": "Emax, mRNA expression (all lots)", "setting": "CYP3A4 mRNA [2]; human", "value": "greater than 20 fold"}, {"measurement": "RIS Based on mRNA, Mean", "setting": "CYP3A4 mRNA [2]; human", "value": 0.13}, {"measurement": "RIS values based on CYP3A4 mRNA level (range stated for group of compounds)", "setting": "CYP3A4 mRNA [2]; human", "value": "0.0012–0.16"}, {"measurement": "CYP3A4 enzyme activity induction response (in words)", "setting": "CYP3A4 [3]", "value": "positive induction response"}, {"measurement": "CYP3A4 enzyme activity induction over solvent vehicle control", "setting": "CYP3A4 [3]; human", "value": "greater than 1.4 fold"}, {"measurement": "Emax, enzyme activity (all lots)", "setting": "CYP3A4 [3]; human", "value": "greater than 20 fold"}, {"measurement": "RIS Based on Enzyme Activity, Mean", "setting": "CYP3A4 [3]; human", "value": 0.0697}, {"measurement": "RIS values based on enzyme activity (range stated for group of compounds)", "setting": "CYP3A4 [3]; human", "value": "0.0004–0.09"}, {"measurement": "Predicted % AUC Change Based on Activity", "setting": "CYP3A4 [4]", "value": "8.9% and 2.1% and 0.63%"}, {"measurement": "Predicted % AUC Change Based on mRNA", "setting": "CYP3A4 [4]", "value": "4.4% and 0.89% and 8.3%"}, {"measurement": "Predicted AUC change using HepatoCells (range of lots)", "setting": "CYP3A4 [4]", "value": "0.9–8%"}]}]}
